The record followed here is PubChem BioAssay AID493014 (National Center for Advancing Translational Sciences (NCATS), 2011).

The other results are listed elsewhere or left out. Further columns of the screen follow, without active or inactive calls. Most of these compounds were active or inconclusive in the main read-out, so they are no random draw. The note in brackets gives the kind of curve behind each potency; many fits are weak.

A short description of this experiment: qHTS Assay to Find Inhibitors of Chronic Active B-Cell Receptor Signaling. Conditions: ABC-DLBCL IkBa-CBG/CBR reporter, luminescence ratio (green luciferase fused to IkBa over red control in TMD8 lymphoma cells), 4 h. An outline of the steps: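 Concentration-response series (up to 46 uM) were applied to TMD8 dual-reporter cells for 4 h at 37C with doxycycline. Green/red ratio, after filter-overlap correction, defined %Activity; red signal alone was normalised to basal cells and zero luminescence.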
On the technique in general: Quantitative high-throughput screening tests each substance at several concentrations.

Setting [1] is: measured here: CBR red luminescence, cell number.
The mark [2] stands for this setting: measured here: IkBa-CBG green luminescence.

A word on the AC50: it is the concentration at which the activity in the assay is half-maximal. Turning to `O=C(NNC(=O)c1cccs1)c1ccc2ccccc2c1`, the AC50 under setting [1] was 4.47 µM [falling, partial curve].

Turning to `Cc1nn(-c2ccccc2)c(C)c1/C=N/N1CCN(c2ccccc2)CC1`, the AC50 under setting [1] was 5.8 µM [rising, single point].

For `O=C1CN(C(=O)/C=C/c2cccc(Cl)c2)c2ccccc2N1`, under setting [1], the AC50 was 1.41 µM [rising, full curve].

Take `CCOc1ccc(S(=O)(=O)NCCOC)cc1C`: the AC50 under setting [1] is 0.00517 µM [rising, full curve, poor fit].

With `CCN(CC(=O)N1CCOCC1)S(=O)(=O)c1cc(Cl)ccc1Cl`, under setting [1], the AC50 was 12.6 µM [rising, partial curve, poor fit].

Turning to `Cc1c(C(=O)NCc2ccccn2)oc2ccc(S(=O)(=O)N3CCC4(CC3)OCCO4)cc12`, the AC50 under setting [1] is 5.01 µM [rising, full curve, poor fit].

Regarding `CCCC(=O)Nc1sc(C(=O)Nc2cccc(N)c2)c(C)c1C(=O)OC`, under setting [1], the AC50 is 2.82 µM [falling, partial curve, poor fit].

As to `CCOC(=O)C1CCN(C(=O)CSc2cc(=O)n(C)c3ccccc23)CC1`, the AC50 under setting [1] is 14.1 µM [rising, single point].

On to `NS(=O)(=O)c1ccc(N=Nc2c(O)ccc3ccccc23)cc1`, for which the AC50 under setting [1] was 5.62 µM [falling, full curve, poor fit].

For `C/C(=C\C(=O)c1ccc(Br)cc1)Nc1ccc(Cl)cc1`, the AC50 under setting [1] was 20.6 µM [rising, partial curve].

On to `Cn1cc(C(=O)N/N=C/C(Br)=C/c2ccccc2)ccc1=O`, for which the AC50 under setting [1] is 4.61 µM [rising, single point].

With `Cc1cc(C(=O)Nc2ccccc2C(=O)O)ccc1NC(=O)COc1cccc(C)c1C`, the AC50 under setting [1] was 1 µM [rising, full curve, poor fit].

As for `CCOCCCN(C(=O)CNC(=O)c1ccco1)C(C(=O)NC1CCCC1)c1ccccc1C` (stereo not given), the AC50 under setting [1] was 11.2 µM [rising, partial curve].

With `CN1CCN(c2ncnc3c2c(-c2ccccc2)cn3-c2ccc(F)cc2)CC1`, the AC50 under setting [1] is 17.8 µM [falling, single point].

In the case of `CC1CCC(CN2C(Nc3ccccc3)=NC[C@@H]2Cc2ccccc2)CC1` (stereo not given in full), the AC50 under setting [1] was 32.6 µM [falling, partial curve, poor fit].

Regarding `Fc1ccccc1/C=N/Nc1nc(-c2ccccn2)nc2ccccc12`, under setting [1], the AC50 is 22.4 µM [rising, partial curve, poor fit].

As to `CC(=O)c1ccc(NC(=O)CSc2nc3nc(C)cc(C)n3n2)cc1`, the AC50 under setting [1] is 29.1 µM [rising, single point].

As for `O=C(/C=C/c1ccco1)N/C(=C\c1ccco1)C(=O)NCCc1nc2ccccc2[nH]1`, under setting [1], the half-maximal activity concentration (AC50) is 25.9 µM [falling, single point].

Regarding `CC(=O)Nc1c(C)cc(OCC(=O)O)cc1C`, the AC50 under setting [1] is 35.5 µM [rising, single point].

For `FC(F)(F)c1ccc2c3n(nc2c1)CCN=C3c1ccc(Cl)cc1`, the AC50 under setting [1] was 32.6 µM [falling, partial curve, poor fit].

For the compound `COc1ccc(N(CC(=O)NCCC2=CCCCC2)S(=O)(=O)c2ccccc2F)cc1`, the AC50 under setting [1] is 0.112 µM [rising, full curve, poor fit].

As for `O=C(CCn1c(=O)oc2ccccc21)NCCCN1CCN(c2ccc(F)cc2)CC1`, the AC50 under setting [1] is 17.8 µM [falling, partial curve, poor fit].

On to `COC(=O)N/N=C/c1ccc(-c2ccc(C)c(Cl)c2)o1`, for which the AC50 under setting [1] is 2.06 µM [rising, partial curve, poor fit].

Regarding `O=C(Cc1coc2cc3c(cc12)CCC3)OCc1cc(=O)n2c(n1)sc1ccccc12`, the AC50 under setting [1] is 0.651 µM [falling, full curve, poor fit].

In the case of `CCc1ccc(OCC(=O)c2c(O)c3ccccc3oc2=O)cc1`, the AC50 under setting [1] is 5.62 µM [falling, partial curve, poor fit].

Take `O=C(O)CCCN1C(=O)/C(=C\c2ccco2)SC1=S`: the AC50 under setting [1] was 1.26 µM [falling, full curve, poor fit].

Consider `Cc1noc(/C=C/N(C)C)c1S(=O)(=O)N(C)CC(=O)NC1CCCCC1`, for which the AC50 under setting [1] was 32.6 µM [falling, single point].

Regarding `Cc1oc2ccc(NS(=O)(=O)c3ccc(C(C)(C)C)cc3)cc2c1C(=O)Nc1ccccc1`, the AC50 under setting [1] is 1.26 µM [falling, partial curve, poor fit].

Turning to `O=[N+]([O-])c1ccc(Sc2nccn2Cc2ccccc2)c([N+](=O)[O-])c1`, the AC50 is 32.6 µM [falling, single point] under setting [1] and 4.61 µM [rising, partial curve, poor fit] under setting [2].

With `O=C(NC(O)C(=O)c1ccccc1)c1ccccn1` (stereo not given), the AC50 under setting [1] is 25.1 µM [falling, single point].

For the compound `Cc1cc(C(=O)CSc2ccc3c(c2)OCCO3)c(C)n1C1CC1`, under setting [1], the AC50 is 29.1 µM [falling, single point].

Take `C[C@]12CC[C@H](O)CC1=CCC1C2CC[C@@]2(C)C1CC[C@@H]2NC(=O)CCC(=O)O` (stereo not given in full): under setting [1], the AC50 was 29.1 µM [rising, partial curve, poor fit].

Regarding `Cc1cc(C)nc(SCc2c(F)cccc2Cl)n1`, the AC50 under setting [2] was 10 µM [falling, partial curve, poor fit].

Turning to `COc1ccc(/C=C/C(=O)N2CCCc3ccccc32)c(OC)c1`, the AC50 under setting [1] was 17.8 µM [falling, partial curve, poor fit].

Consider `O=C(NN1C(=O)C2C(c3ccccc3)C=CC(c3ccccc3)C2C1=O)c1cccc(Br)c1` (stereo not given), for which the AC50 under setting [1] is 23.1 µM [falling, single point].

For `CC1Nc2ncnc(N3CCc4ccccc4C3)c2N(Cc2ccc(Br)cc2)C1=O` (stereo not given), under setting [1], the AC50 was 23.1 µM [falling, single point].

With `CCO[C@H]1OC(C(=O)Nc2ccccc2)=C[C@@H](c2ccc(Br)cc2)[C@@H]1CCCO`, the AC50 under setting [1] is 6.31 µM [falling, full curve].

As for `O=C(O)c1ccc(-n2ncc3c2/C(=C/c2cccc([N+](=O)[O-])c2)CC3)cc1`, the AC50 under setting [1] was 0.891 µM [falling, full curve].

For the compound `O=C(Cc1ccccc1)NNC(=O)c1ccccc1C(=O)O`, the AC50 under setting [1] is 4.47 µM [falling, partial curve, poor fit].

As to `O=C(O)CCNc1ccc2c(c1)OCCO2`, under setting [1], the AC50 is 7.31 µM [rising, partial curve].

Turning to `CC(C)c1ccc(Nc2nnc(SCC(=O)c3nnc(-c4ccccc4)o3)s2)cc1`, the AC50 under setting [1] was 23.1 µM [rising, single point].

Turning to `NC(=NCCCCCCN=C(N)/N=C(\N)Nc1ccc(Cl)cc1)/N=C(\N)Nc1ccc(Cl)cc1`, the AC50 under setting [1] was 7.31 µM [rising, partial curve].

As for `O=C(/C=C/c1cccc(Cl)c1)NCc1cccs1`, under setting [1], the AC50 was 4.47 µM [falling, full curve, poor fit].

For the compound `Cc1ccc(N(CC(=O)NCc2ccco2)C(=O)CCC(=O)Nc2nccs2)cc1`, the AC50 under setting [1] was 12.6 µM [falling, partial curve].

As for `Cc1ccc(C)c(N2CCN(C(=O)c3cc4c(C)nc5ccccc5c4o3)CC2)c1`, the AC50 under setting [1] was 22.4 µM [falling, single point].

Turning to `N#C/C(=C\c1ccncc1)c1nc2c(s1)CCCC2`, the AC50 under setting [1] was 2.51 µM [rising, full curve, poor fit].

`Cc1cccc(N(O)C(=O)Nc2cccc(Cl)c2)c1`: the AC50 under setting [1] was 17.8 µM [rising, single point].

In the case of `CCOC(=O)Cn1nnc(-c2cccc(OC)c2)n1`, the AC50 under setting [1] was 0.631 µM [rising, full curve, poor fit].

With `O=c1cc(-c2ccncc2)oc2c1ccc1ccccc12`, under setting [1], the AC50 is 15.8 µM [rising, single point].

On to `CCc1sc(C(=O)Nc2nc(C)cs2)cc1C`, for which, under setting [1], the AC50 is 10 µM [falling, partial curve, poor fit].

For `Cc1cccc(/C=N/NC(=O)c2ccc(NC(=O)c3ccccc3C)cc2)n1`, under setting [1], the AC50 was 6.31 µM [falling, partial curve].

On to `CC1CCN(c2c(NCC3CCC(C(=O)NC4CCCCCC4)CC3)c(=O)c2=O)CC1` (stereo not given), for which, under setting [1], the AC50 was 11.2 µM [rising, single point].

For the compound `COc1ccccc1N(CCC#N)C(=O)CSc1nnc2ccccn12`, under setting [1], the AC50 was 29.1 µM [rising, single point].

In the case of `Cc1cc(C)n2nc(N)c(N=Nc3ccc(Cl)cc3)c2n1`, the AC50 under setting [1] was 1.46 µM [rising, full curve].

`CC(=C/c1ccccc1)/C=N/NC(=O)c1cc(C)oc1C`: the AC50 under setting [1] was 0.92 µM [falling, full curve].

In the case of `Cc1ccc(C(=O)NNC(=O)c2ccc3c(c2)OCCO3)cc1`, the AC50 under setting [1] was 6.51 µM [rising, full curve].

On to `COc1ccc(NC(=O)CSc2ncc(-c3ccc(F)cc3)n2Cc2ccco2)cc1`, for which the AC50 under setting [1] is 23.1 µM [falling, single point] and the AC50 under setting [2] was 23.1 µM [rising, partial curve, poor fit].

Consider `CC(C)(C)c1nnc2sc(SCC(=O)N3CCc4ccccc43)nn2c1=O`, for which the AC50 under setting [1] is 0.631 µM [falling, full curve, poor fit].

With `CN1CCN(c2ccc(NC(=O)c3ccccc3Br)cc2)CC1`, the AC50 under setting [1] is 18.4 µM [falling, single point].

For the compound `Cc1cccc(C)c1NC(=O)COc1ccccc1C(=O)Nc1ccc(Br)cn1`, the AC50 under setting [1] was 1.64 µM [rising, full curve, poor fit].

`CCOC(=O)N1CCC(NC(=O)c2ccc3c(c2)N=C(CC)c2cc(C)ccc2S3)CC1`: the AC50 under setting [1] is 11.2 µM [falling, partial curve, poor fit].

As for `Cn1c(C(=O)NC2CCCC2)cc2c(=O)n(C)c3ccccc3c21`, the AC50 under setting [1] was 3.16 µM [rising, full curve, poor fit].

With `Cc1ccc(Cn2c(C)nc3c(c2=O)c2nc4ccccc4nc2n3Cc2ccco2)cc1`, under setting [1], the AC50 is 2.31 µM [falling, full curve].
